PubChem BioAssay AID1259254 | NCATS | 2017
The whole screen tested about 59,000 reagents; below is a part drawn at random. Over the whole deposit, about 1,550 (2.6%) were called active. 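G2 share is only a proxy for re-replication; each gene was hit by three separate siRNAs, and active genes were retested.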 Unmarked entries are inactive. Not all columns of the deposit are shown. Reagent sequences are not shown. Not stated in the record: the amount of reagent.

Screen: 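Finding genes that stop cells copying their DNA twice in one cycle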 (primary screen)
Cell system: human HCT116 colorectal cancer cells
Reagents: single siRNA against human genes
Duration: 3 days
Detection: 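Nuclei stained with Hoechst and imaged; cell-cycle phase assigned by DNA content; G2 share scaled per plate, non-targeting siRNA 0%, GMNN siRNA 100%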
Direction: G2 robust z-score: higher = more G2 cells, more excess DNA replication
Call rule: 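An siRNA counts as active if its G2 robust z-score lies at least 5 MADs above the screen median; here such calls match roughly 38% of GMNN control or more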

{"target": "ALG1 (GeneID 56052)", "PubChem SID": "SID160744736", "G2 robust z-score": -0.161}
{"target": "ALG1 (GeneID 56052)", "PubChem SID": "SID160744737", "G2 robust z-score": 1.38}
{"target": "ALG1 (GeneID 56052)", "PubChem SID": "SID160744738", "G2 robust z-score": -0.794}
{"target": "MAP7 (GeneID 9053)", "PubChem SID": "SID160721358", "G2 robust z-score": 0.0313}
{"target": "MAP7 (GeneID 9053)", "PubChem SID": "SID160721359", "G2 robust z-score": -1.21}
{"target": "MAP7 (GeneID 9053)", "PubChem SID": "SID160721360", "G2 robust z-score": -0.164}
{"target": "NDNF (GeneID 79625)", "PubChem SID": "SID160734941", "G2 robust z-score": -0.544}
{"target": "NDNF (GeneID 79625)", "PubChem SID": "SID160749023", "G2 robust z-score": -0.842}
{"target": "NDNF (GeneID 79625)", "PubChem SID": "SID160749024", "G2 robust z-score": 2.09}
{"target": "GBA2 (GeneID 57704)", "PubChem SID": "SID160746621", "G2 robust z-score": -0.321}
{"target": "GBA2 (GeneID 57704)", "PubChem SID": "SID160746622", "G2 robust z-score": 2.32}
{"target": "GBA2 (GeneID 57704)", "PubChem SID": "SID160746623", "G2 robust z-score": 0.707}

Reformatted: 2 of the entries above.
MAP7 (GeneID 9053) [SID160721360]
- G2 robust z-score: -0.164

NDNF (GeneID 79625) [SID160734941]
- G2 robust z-score: -0.544
